No constants are given. Whether binding was seen depends on the method and setting. In cells and extracts the contact can be indirect. A yes stands for co-enrichment or nearness to the bait. Other partners may have been found. No binding means not detected with the bait.
T1: methylenetetrahydrofolate dehydrogenase 2 (MTHFD2) (human (endogenous in HCT116 and H358)) (UniProt P13995)
T1 sequence: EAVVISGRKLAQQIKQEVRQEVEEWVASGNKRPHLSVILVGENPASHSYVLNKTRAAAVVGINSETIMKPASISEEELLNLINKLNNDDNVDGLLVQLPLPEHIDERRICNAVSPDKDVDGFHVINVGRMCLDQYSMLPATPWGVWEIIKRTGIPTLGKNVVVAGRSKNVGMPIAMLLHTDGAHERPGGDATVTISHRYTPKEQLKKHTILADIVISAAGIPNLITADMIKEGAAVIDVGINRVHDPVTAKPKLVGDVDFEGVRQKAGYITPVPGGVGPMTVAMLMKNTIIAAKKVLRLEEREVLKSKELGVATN

Amino acid sequences for entries named in this document (tags omitted).
UniProt P42898: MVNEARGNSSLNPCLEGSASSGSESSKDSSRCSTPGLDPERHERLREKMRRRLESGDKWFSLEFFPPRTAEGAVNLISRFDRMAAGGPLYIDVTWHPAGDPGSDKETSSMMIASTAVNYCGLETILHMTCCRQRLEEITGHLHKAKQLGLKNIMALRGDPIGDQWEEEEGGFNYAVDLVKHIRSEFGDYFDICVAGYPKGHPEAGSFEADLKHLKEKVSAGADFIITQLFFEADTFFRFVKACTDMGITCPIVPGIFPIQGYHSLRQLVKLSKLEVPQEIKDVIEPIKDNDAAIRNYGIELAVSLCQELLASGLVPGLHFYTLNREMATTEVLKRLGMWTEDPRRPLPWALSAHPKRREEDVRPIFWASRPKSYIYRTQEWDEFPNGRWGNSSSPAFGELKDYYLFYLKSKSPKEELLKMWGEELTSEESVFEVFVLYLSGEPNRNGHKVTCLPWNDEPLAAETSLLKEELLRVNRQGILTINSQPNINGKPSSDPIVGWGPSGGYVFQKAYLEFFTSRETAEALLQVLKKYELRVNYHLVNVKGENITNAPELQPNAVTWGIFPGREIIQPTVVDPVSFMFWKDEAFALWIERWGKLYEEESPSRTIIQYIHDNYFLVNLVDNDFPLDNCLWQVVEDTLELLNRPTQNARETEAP
UniProt P12270: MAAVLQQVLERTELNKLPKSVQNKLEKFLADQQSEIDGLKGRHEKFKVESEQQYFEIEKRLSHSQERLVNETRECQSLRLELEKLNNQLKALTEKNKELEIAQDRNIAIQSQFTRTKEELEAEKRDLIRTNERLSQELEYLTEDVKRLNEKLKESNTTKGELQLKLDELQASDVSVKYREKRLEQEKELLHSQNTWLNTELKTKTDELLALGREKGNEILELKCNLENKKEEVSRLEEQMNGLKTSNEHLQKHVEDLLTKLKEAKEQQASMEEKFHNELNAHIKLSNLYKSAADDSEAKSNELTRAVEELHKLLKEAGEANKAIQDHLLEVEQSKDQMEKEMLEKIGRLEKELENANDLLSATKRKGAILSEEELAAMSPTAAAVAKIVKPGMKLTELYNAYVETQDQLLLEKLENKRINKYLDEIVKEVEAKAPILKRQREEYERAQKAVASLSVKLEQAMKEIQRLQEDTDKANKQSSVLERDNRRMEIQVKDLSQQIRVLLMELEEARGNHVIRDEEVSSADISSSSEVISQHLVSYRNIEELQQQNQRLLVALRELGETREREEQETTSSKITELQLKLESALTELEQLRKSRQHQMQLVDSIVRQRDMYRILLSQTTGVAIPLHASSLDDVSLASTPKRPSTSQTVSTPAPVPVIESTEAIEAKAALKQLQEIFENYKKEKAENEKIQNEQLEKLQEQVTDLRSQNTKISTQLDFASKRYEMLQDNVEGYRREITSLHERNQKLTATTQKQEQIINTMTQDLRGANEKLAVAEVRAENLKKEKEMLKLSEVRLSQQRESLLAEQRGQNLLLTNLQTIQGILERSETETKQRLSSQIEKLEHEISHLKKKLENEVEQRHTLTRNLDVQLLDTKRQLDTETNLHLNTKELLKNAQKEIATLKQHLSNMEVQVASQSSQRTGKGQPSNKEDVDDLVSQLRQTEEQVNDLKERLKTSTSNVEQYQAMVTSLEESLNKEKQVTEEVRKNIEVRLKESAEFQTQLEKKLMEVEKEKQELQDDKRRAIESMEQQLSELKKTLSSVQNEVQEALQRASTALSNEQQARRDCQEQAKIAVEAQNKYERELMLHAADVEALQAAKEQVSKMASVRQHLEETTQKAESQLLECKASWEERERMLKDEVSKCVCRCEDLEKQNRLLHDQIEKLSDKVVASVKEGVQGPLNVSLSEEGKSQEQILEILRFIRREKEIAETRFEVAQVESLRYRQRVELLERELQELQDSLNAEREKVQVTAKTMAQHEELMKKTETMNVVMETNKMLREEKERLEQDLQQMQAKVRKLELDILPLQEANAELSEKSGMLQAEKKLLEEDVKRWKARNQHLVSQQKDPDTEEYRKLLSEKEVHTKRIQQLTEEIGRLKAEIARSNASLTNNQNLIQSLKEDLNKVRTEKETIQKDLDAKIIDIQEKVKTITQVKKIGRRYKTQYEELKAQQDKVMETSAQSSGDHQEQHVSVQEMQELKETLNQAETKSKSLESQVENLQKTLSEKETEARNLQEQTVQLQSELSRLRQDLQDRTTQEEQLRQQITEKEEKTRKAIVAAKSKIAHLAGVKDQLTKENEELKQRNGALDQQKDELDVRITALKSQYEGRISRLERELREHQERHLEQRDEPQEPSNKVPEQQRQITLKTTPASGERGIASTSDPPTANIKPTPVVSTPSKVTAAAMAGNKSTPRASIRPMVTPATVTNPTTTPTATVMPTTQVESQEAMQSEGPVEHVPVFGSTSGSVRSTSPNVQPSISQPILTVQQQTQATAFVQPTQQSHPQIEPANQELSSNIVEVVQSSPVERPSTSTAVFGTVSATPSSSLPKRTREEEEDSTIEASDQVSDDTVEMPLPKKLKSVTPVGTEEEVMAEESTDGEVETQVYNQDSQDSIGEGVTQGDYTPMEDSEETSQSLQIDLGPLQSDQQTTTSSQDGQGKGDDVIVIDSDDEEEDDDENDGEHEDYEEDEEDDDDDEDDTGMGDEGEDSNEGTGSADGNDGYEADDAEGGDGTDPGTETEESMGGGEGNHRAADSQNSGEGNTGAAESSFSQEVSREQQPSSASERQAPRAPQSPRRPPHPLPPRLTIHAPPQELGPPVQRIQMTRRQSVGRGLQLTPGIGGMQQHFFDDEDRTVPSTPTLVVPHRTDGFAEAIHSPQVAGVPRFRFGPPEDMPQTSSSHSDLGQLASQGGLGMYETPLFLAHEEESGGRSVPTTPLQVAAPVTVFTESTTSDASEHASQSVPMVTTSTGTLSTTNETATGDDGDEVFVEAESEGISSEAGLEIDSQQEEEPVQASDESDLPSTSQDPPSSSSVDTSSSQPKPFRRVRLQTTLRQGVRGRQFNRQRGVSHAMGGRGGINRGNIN
UniProt P54619: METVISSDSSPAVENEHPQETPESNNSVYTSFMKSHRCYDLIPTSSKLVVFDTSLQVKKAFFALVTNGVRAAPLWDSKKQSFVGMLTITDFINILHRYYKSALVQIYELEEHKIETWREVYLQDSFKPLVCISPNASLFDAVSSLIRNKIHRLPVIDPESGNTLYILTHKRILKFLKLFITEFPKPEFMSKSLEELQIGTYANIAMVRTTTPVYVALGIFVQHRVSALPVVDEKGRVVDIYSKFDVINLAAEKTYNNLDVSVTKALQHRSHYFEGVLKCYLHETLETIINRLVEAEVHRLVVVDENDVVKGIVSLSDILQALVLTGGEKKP
UniProt Q9UGJ0: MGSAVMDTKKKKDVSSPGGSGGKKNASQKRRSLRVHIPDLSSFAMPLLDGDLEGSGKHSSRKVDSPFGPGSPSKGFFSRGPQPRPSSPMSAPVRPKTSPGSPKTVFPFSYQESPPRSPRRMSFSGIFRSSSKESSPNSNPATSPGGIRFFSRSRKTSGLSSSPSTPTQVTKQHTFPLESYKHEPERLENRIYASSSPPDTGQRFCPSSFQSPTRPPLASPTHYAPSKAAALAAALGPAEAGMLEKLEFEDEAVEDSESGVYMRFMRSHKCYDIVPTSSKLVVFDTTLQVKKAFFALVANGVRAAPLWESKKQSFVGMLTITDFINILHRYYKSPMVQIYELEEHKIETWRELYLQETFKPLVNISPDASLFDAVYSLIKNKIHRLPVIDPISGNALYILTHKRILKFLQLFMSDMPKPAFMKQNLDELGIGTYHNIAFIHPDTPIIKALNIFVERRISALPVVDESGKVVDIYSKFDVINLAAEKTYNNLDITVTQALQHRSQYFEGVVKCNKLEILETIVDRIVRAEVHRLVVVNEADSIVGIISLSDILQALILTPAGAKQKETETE
UniProt Q99873: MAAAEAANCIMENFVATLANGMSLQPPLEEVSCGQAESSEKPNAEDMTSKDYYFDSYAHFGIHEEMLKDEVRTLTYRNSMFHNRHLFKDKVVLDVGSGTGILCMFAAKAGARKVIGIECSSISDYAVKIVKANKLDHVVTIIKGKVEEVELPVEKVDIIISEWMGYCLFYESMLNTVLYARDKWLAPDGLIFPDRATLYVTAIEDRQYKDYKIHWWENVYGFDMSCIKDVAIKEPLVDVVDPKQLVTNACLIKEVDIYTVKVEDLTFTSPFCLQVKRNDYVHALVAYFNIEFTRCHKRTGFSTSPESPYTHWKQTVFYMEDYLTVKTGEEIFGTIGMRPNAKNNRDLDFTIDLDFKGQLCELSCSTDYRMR

B1: MAD1L1 (protein, UniProt Q9Y6D9 1-718)
chain: MEDLGENTMVLSTLRSLNNFISQRVEGGSGLDISTSAPGSLQMQYQQSMQLEERAEQIRSKSHLIQVEREKMQMELSHKRARVELERAASTSARNYEREVDRNQELLTRIRQLQEREAGAEEKMQEQLERNRQCQQNLDAASKRLREKEDSLAQAGETINALKGRISELQWSVMDQEMRVKRLESEKQELQEQLDLQHKKCQEANQKIQELQASQEARADHEQQIKDLEQKLSLQEQDAAIVKNMKSELVRLPRLERELKQLREESAHLREMRETNGLLQEELEGLQRKLGRQEKMQETLVGLELENERLLAKLQSWERLDQTMGLSIRTPEDLSRFVVELQQRELALKDKNSAVTSSARGLEKARQQLQEELRQVSGQLLEERKKRETHEALARRLQKRVLLLTKERDGMRAILGSYDSELTPAEYSPQLTRRMREAEDMVQKVHSHSAEMEAQLSQALEELGGQKQRADMLEMELKMLKSQSSSAEQSFLFSREEADTLRLKVEELEGERSRLEEEKRMLEAQLERRALQGDYDQSRTKVLHMSLNPTSVARQRLREDHSQLQAECERLRGLLRAMERGGTVPADLEAAAASLPSSKEVAELKKQVESAELKNQRLKEVFQTKIQEFRKACYTLTGYQIDITTENQYRLTSLYAEHPGDCLIFKATSPSGSKMQLLETEFSHTVGELIEVHLRRQDSIPAFLSSLTLELFSRQTVA
B2: Kinesin KIF4A (protein, UniProt O95239 1-1232)
chain: MKEEVKGIPVRVALRCRPLVPKEISEGCQMCLSFVPGEPQVVVGTDKSFTYDFVFDPSTEQEEVFNTAVAPLIKGVFKGYNATVLAYGQTGSGKTYSMGGAYTAEQENEPTVGVIPRVIQLLFKEIDKKSDFEFTLKVSYLEIYNEEILDLLCPSREKAQINIREDPKEGIKIVGLTEKTVLVALDTVSCLEQGNNSRTVASTAMNSQSSRSHAIFTISLEQRKKSDKNSSFRSKLHLVDLAGSERQKKTKAEGDRLKEGININRGLLCLGNVISALGDDKKGGFVPYRDSKLTRLLQDSLGGNSHTLMIACVSPADSNLEETLNTLRYADRARKIKNKPIVNIDPQTAELNHLKQQVQQLQVLLLQAHGGTLPGSITVEPSENLQSLMEKNQSLVEENEKLSRGLSEAAGQTAQMLERIILTEQANEKMNAKLEELRQHAACKLDLQKLVETLEDQELKENVEIICNLQQLITQLSDETVACMAAAIDTAVEQEAQVETSPETSRSSDAFTTQHALRQAQMSKELVELNKALALKEALARKMTQNDSQLQPIQYQYQDNIKELELEVINLQKEKEELVLELQTAKKDANQAKLSERRRKRLQELEGQIADLKKKLNEQSKLLKLKESTERTVSKLNQEIRMMKNQRVQLMRQMKEDAEKFRQWKQKKDKEVIQLKERDRKRQYELLKLERNFQKQSNVLRRKTEEAAAANKRLKDALQKQREVADKRKETQSRGMEGTAARVKNWLGNEIEVMVSTEEAKRHLNDLLEDRKILAQDVAQLKEKKESGENPPPKLRRRTFSLTEVRGQVSESEDSITKQIESLETEMEFRSAQIADLQQKLLDAESEDRPKQRWENIATILEAKCALKYLIGELVSSKIQVSKLESSLKQSKTSCADMQKMLFEERNHFAEIETELQAELVRMEQQHQEKVLYLLSQLQQSQMAEKQLEESVSEKEQQLLSTLKCQDEELEKMREVCEQNQQLLRENEIIKQKLTLLQVASRQKHLPKDTLLSPDSSFEYVPPKPKPSRVKEKFLEQSMDIEDLKYCSEHSVNEHEDGDGDDDEGDDEEWKPTKLVKVSRKNIQGCSCKGWCGNKQCGCRKQKSDCGVDCCCDPTKCRNRQQGKDSLGTVERTQDSEGSFKLEDPTEVTPGLSFFNPVCATPNSKILKEMCDVEQVLSKKTPPAPSPFDLPELKHVATEYQENKAPGKKKKRALASNTSFFSGCSPIEEEAH
B3: N-Lysine Methyltransferase KMT5A (enzyme, UniProt Q9NQR1 1-393)
chain: MGEGGAAAALVAAAAAAAAAAAAVVAGQRRRRLGRRARCHGPGRAAGGKMSKPCAVEAAAAAVAATAPGPEMVERRGPGRPRTDGENVFTGQSKIYSYMSPNKCSGMRFPLQEENSVTHHEVKCQGKPLAGIYRKREEKRNAGNAVRSAMKSEEQKIKDARKGPLVPFPNQKSEAAEPPKTPPSSCDSTNAAIAKQALKKPIKGKQAPRKKAQGKTQQNRKLTDFYPVRRSSRKSKAELQSEERKRIDELIESGKEEGMKIDLIDGKGRGVIATKQFSRGDFVVEYHGDLIEITDAKKREALYAQDPSTGCYMYYFQYLSKTYCVDATRETNRLGRLINHSKCGNCQTKLHDIDGVPHLILIASRDIAAGEELLYDYGDRSKASIEAHPWLKH

What follows are molecules tested against T1, methylenetetrahydrofolate dehydrogenase 2 (MTHFD2) (human (endogenous in HCT116 and H358)) (assay: affinity purification with mass spectrometry).
With “Methylenetetrahydrofolate Reductase (MTHFR) (from UniProt P42898 1-656) (enzyme)” the binding was “no binding”. With “Nucleoprotein TPR (from UniProt P12270 1-2363)” the binding was “binds”. For PRKAG1 (from UniProt P54619 1-331), the binding was “binds”. In the case of PRKAG2 (from UniProt Q9UGJ0 1-569), the binding is reported as “binds”. “Protein Arginine N-Methyltransferase 1 (PRMT1) (from UniProt Q99873 1-371) (enzyme)” was tested, and the binding was “binds”. With B1 the binding was “binds”. B2 was tested, and the binding was “binds”. B3 was tested, and the binding was “binds”.
